This is an account of results in PubChem BioAssay AID2685 (National Center for Advancing Translational Sciences (NCATS), 2010).

This experiment in a line: qHTS Assay for Lipid Storage Modulators in Drosophila S3 Cells.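 As to cell number change: cells counted by Cell Tracker Red CMTPX staining in the red channel.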 The following applies: BODIPY lipid droplet fluorescence, 18-24 h; for cell number change: measured here: cell count max response, cells fed with added oleic acid. In a few lines:
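Laser-scanning cytometry quantifies lipid droplet accumulation (500–530 nm total intensity; droplet/cell object ratio) in oleic acid-fed (400 uM added) Drosophila S3 cells treated with a concentration series. 20 uM Triacsin C defined 100% inhibition.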
A general note: qHTS replaces the single test concentration by a dilution series.

Setting [1] is: measured here: lipid fluorescence (Fed channel) AC50, cells fed with added oleic acid.
[2] abbreviates: measured here: cell number channel AC50, cells fed with added oleic acid.

The other results are listed elsewhere or left out. The main result of the screen is listed elsewhere. These columns were measured beside it and carry no call. The list favours compounds with an active or inconclusive main result. Words in brackets tell the shape of the fitted curve; partial curves, single points and poor fits give uncertain potencies. Where a SMILES comes first, the peptide text is derived from it. The star is where a group is joined. Tos = Cc1ccc(S(=O)(=O)*)cc1

In the case of `COc1cc(S(=O)(=O)NCc2ccc3c(c2)OCO3)ccc1Cl`, the cell number change came out at 11.7%. Under setting [1], the AC50 (commonly the concentration at which the activity in the assay is half-maximal) was 0.00461 µM [falling, full curve, poor fit].
Take `CC1=C(C(=O)c2ccccc2)C(c2cccc([N+](=O)[O-])c2)NC(=S)N1` (configuration not stated): the cell number change was determined as 0.271%.
For `O=C(COc1ncnc2ccccc12)Nc1cc([N+](=O)[O-])ccc1Cl`, the cell number change came out at 18.5%. For the same molecule, the AC50 under setting [2] was 0.82 µM [rising, single point].
As to `Cc1ccc(S(=O)(=O)N[C@@H](CO)C(=O)N[C@@H](Cc2ccc(O)cc2)C(=O)O)cc1` (Tos-Ser-Tyr-OH), under setting [1], the AC50 was 0.0731 µM [rising, full curve].
Turning to `Cc1cccc(C(=O)N=c2sccn2C)c1[N+](=O)[O-]`, the cell number change was determined as 1.45%. Besides, the AC50 under setting [1] was 0.517 µM [rising, single point].
Turning to `CSc1ccccc1C(=O)Nc1ncc(C)s1`, the cell number change was found to be 38.4%. Also, under setting [2], the AC50 was 29.1 µM [rising, single point]. The AC50 under setting [1] was 29.1 µM [rising, single point].
`CC(=O)c1ccc2noc(-c3cccc(C)c3)c2c1`: the cell number change was 58.5%. Also, under setting [2], the AC50 was 18.4 µM [rising, single point].
As to `C=CCNc1oc(-c2ccco2)nc1S(=O)(=O)c1ccccc1`, the AC50 by setting is: under setting [2], 5.8 µM [falling, single point]; under setting [1], 29.1 µM [falling, single point].
On to `Cc1cc(NC(=O)CSCc2ccccc2C)no1`, for which the cell number change was 7.63%. For the same molecule, the AC50 under setting [2] was 7.31 µM [falling, single point]. Also, under setting [1], the AC50 was 3.66 µM [falling, partial curve].
For the molecule `CN1CCN(c2ccc(Cl)cc2NC(=O)/C=C/c2ccc(F)cc2)CC1`, the AC50 under setting [2] is 0.58 µM [rising, partial curve] and the AC50 under setting [1] was 4.11 µM [rising, single point].
Consider `CN1CCN(c2nc3nonc3nc2N2CCN(C)CC2)CC1`, for which the cell number change is -33.2%. Besides, the AC50 under setting [2] was 4.11 µM [falling, full curve]. Also, the AC50 under setting [1] is 18.4 µM [falling, single point].
For the molecule `Cc1c(Cl)cccc1NC(=O)CNc1cccc(S(=O)(=O)N(C)C)c1`, the cell number change amounted to 15.3%.
On the same count and under the same terms, the value for `O=C(O)[C@@H]1CCCN1C(=O)CCc1c[nH]c2ccccc12` was -9.33%.
The same measure, in the same setting: the value for `Cc1ncoc1C(=O)N1CCCC(C(=O)c2ccc(C(F)(F)F)cc2)C1` (configuration not stated) was -6.43%.
Turning to `COc1cccc(CN2CC(C(=O)NC3(c4ccccc4)CC3)CCC2=O)c1` (configuration not stated), the cell number change came out at 27.5%. Under setting [2], the half-maximal activity concentration (AC50) is 0.0058 µM [rising, full curve, poor fit].
Turning to `O=C(O)c1ccc(/C=C/C(=O)c2ccc3c(c2)OCCCO3)cc1`, the cell number change was 17.9%. Under setting [1], the AC50 was 0.116 µM [falling, single point].
For `CC1CCc2c(nc3ncnn3c2N2CC(C)OC(C)C2)C1` (configuration not stated), the cell number change is -3.47%. The AC50 under setting [1] was 5.8 µM [falling, single point].
Take `COC(=O)c1ccc(C(=O)OC)c(NC(=O)COC(=O)C2CCCCC2)c1`: the cell number change stood at 33.4%. Further, the AC50 under setting [2] is 0.116 µM [rising, full curve, poor fit].
Turning to `CCOC(=O)C1C(=O)NC(N2CCCCC2)=NC1c1ccccc1` (configuration not stated), the cell number change stood at 0.859%.
Regarding `O=C(NCc1ccco1)c1cnn2cccnc12`, the cell number change is -39%. Under setting [2], the AC50 is 29.1 µM [falling, single point].
Consider `Cc1cc(C)cc(NC(=O)Nc2ccccc2N2CCCCC2)c1`, for which the cell number change is -26.8%. The AC50 under setting [1] was 29.1 µM [falling, single point].
As to `CCN1CCc2c(OCC(=O)N3CCc4ccccc43)cccc2C1=O`, the cell number change worked out at 53.2%.
With `CC(O)CNc1nc2c(c(=O)n(C)c(=O)n2C)n1C/C=C/c1ccccc1` (configuration not stated), the cell number change is -22.2%. The half-maximal activity concentration (AC50) under setting [1] was 29.1 µM [falling, single point].
With `CC1(C)CC(=O)C(C=Nc2ccc(NC3=C(C#N)C(=O)CC(C)(C)C3)cc2)=C(O)C1`, the cell number change was found to be 65%. Further, under setting [2], the AC50 is 29.1 µM [rising, single point].
For `Cc1ccc(O)c(C(=O)c2cnn(-c3ccc(S(=O)(=O)N4CCOCC4)cc3[N+](=O)[O-])c2)c1`, the cell number change worked out at 9.26%. For the same molecule, the AC50 under setting [2] is 6.51 µM [rising, partial curve, poor fit].
In the case of `O=C(NCCCN1CCCC1)Nc1ccccc1[N+](=O)[O-]`, the cell number change was found to be 11.7%. For the same molecule, the AC50 under setting [2] is 0.651 µM [rising, single point].
`CCN(CC)CCCNc1nc2ccccc2[nH]1`: the cell number change was -93.3%. Further, the AC50 under setting [2] is 25.9 µM [falling, partial curve]. Further, the AC50 under setting [1] was 3.66 µM [falling, full curve].
For `COc1cccc2c(=O)cc(C)n(CC(=O)Nc3ccc(C)c(C)c3)c12`, the cell number change is -90%. For the same molecule, the AC50 under setting [1] was 11.6 µM [falling, single point].
With `O=C(COc1ccc2ccccc2c1)NNC(=O)[C@@H]1CCCC[C@@H]1C(=O)O`, the cell number change is 22.5%. Also, the concentration at half-maximal activity (AC50) under setting [1] was 29.1 µM [falling, single point].
Regarding `Cc1ccc(-c2cc(C(=O)N3CCOCC3)c3ccccc3n2)cc1`, the cell number change amounted to 49.7%. In addition, the AC50 under setting [2] is 8.2 µM [rising, partial curve]. The AC50 under setting [1] was 6.51 µM [rising, single point].
Turning to `Cc1ccc2cc(C)c(N3CCN(c4ccccn4)CC3)nc2c1`, the cell number change was -5.69%. Moreover, under setting [1], the AC50 was 0.58 µM [rising, full curve].
`O=C(NCc1csc(-c2ccccc2)n1)c1ccco1`: the cell number change turned out to be 6.49%. Besides, the half-maximal activity concentration (AC50) under setting [1] is 29.1 µM [falling, single point].
Turning to `O=C(c1ccc([N+](=O)[O-])cc1)N(Cc1ccc(Cl)cc1)N1C(=O)CCCC1=O`, the cell number change came out at 14.9%. For the same molecule, the AC50 under setting [1] was 4.11 µM [rising, full curve, poor fit].
Consider `CC1(C)CC(=O)C(C=NCCCN2CCOCC2)=C(O)C1`, for which the cell number change is -30.7%. Further, under setting [2], the AC50 is 5.17 µM [falling, full curve]. Besides, the AC50 under setting [1] is 0.82 µM [falling, full curve].
With `Cc1ccccc1Cn1nc(C)c(NC(=O)c2sc3ccccc3c2Cl)c1C`, the cell number change is 4.9%.
As for `CN1CCN(c2ccc(S(=O)(=O)N3CCCCC3)cc2NC(=O)c2ccc(F)cc2F)CC1`, the cell number change is -0.833%.
As to `Cc1ccc(NC(=O)COc2ccc(N3CC(C(N)=O)CC3=O)cc2)c(C)c1` (configuration not stated), the cell number change came to 20.4%.
For `CCOc1ccc(C(=O)C(C)OC(=O)Cn2c(C)csc2=O)cc1` (configuration not stated), the cell number change came out at 36.9%. The AC50 under setting [2] was 20.6 µM [rising, single point].
For the molecule `NC(N)=NS(=O)(=O)c1ccc(NC(=S)NC(=O)c2ccccc2)cc1`, the cell number change was -1.49%. In addition, the AC50 under setting [2] is 0.731 µM [rising, single point]. Further, under setting [1], the AC50 is 23.1 µM [falling, single point].
Regarding `O=C1NC(=O)/C(=C\c2ccc(Sc3ccc(Cl)cc3)o2)N1`, the AC50 under setting [2] is 0.92 µM [rising, full curve] and the AC50 under setting [1] was 0.82 µM [rising, full curve].
Regarding `O=[N+]([O-])c1ccc(OCc2cn([C@@H](CO)c3ccccc3)nn2)c(Br)c1`, the cell number change worked out at 27.8%.
Consider `O=C(NCCN1CCOCC1)c1ccc(CS(=O)(=O)c2c(Cl)cccc2Cl)o1`, for which, under setting [1], the AC50 is 11.6 µM [rising, single point].
Take `C=C(C)[C@H]1CC=C(C)C(=O)C1`: the cell number change stood at 3.28%. Further, under setting [2], the AC50 is 0.651 µM [rising, single point].
For the molecule `COc1ccccc1C(=O)NC(C)C(c1cccs1)N1CCOCC1` (configuration not stated), the cell number change came out at 106%. Besides, the AC50 under setting [2] is 13 µM [rising, partial curve]. The AC50 under setting [1] is 1.84 µM [falling, partial curve].
`Cc1ccccc1CNC(=O)c1ccccc1SCC(=O)NCc1ccco1`: the cell number change was found to be 87.1%. Moreover, the AC50 under setting [2] is 8.2 µM [rising, partial curve].
Consider `COC(=O)c1c(NC(=O)CSc2nc(-c3ccco3)cc(C(F)(F)F)n2)sc2c1CCCC2`, for which the cell number change was found to be 13.3%. Besides, the AC50 under setting [1] was 29.1 µM [rising, single point].
As for `O=C(Cc1ccc(Cl)cc1)NNC(=S)NC(=O)c1cccnc1`, the cell number change was -2%.
Still for that read-out and setting: the value for `Cc1ccccc1N(C(=O)c1snc(C(N)=O)c1N)C(C(=O)NC1CCCCC1)c1ccc(O)cc1` (configuration not stated) was -1.71%.
With `CCN(CC(=O)Nc1c(F)cccc1F)C(=O)c1cccc(S(=O)(=O)N(C)c2ccccc2)c1`, the cell number change stood at 31.6%. Further, the AC50 under setting [2] was 10.3 µM [rising, single point].
In the case of `CC1C(=O)O[C@@H]2C[C@@H](C)[C@@H]3CCC(=O)[C@@]3(C)[C@@H](O)[C@H]12` (some centres not stated), the cell number change was determined as 14.2%. Also, under setting [1], the AC50 was 0.231 µM [falling, full curve, poor fit].
As to `Cc1ccc(NC(=O)C(=O)NNC(=O)c2cccs2)cc1`, the cell number change was found to be 11.1%.
Regarding `CN(C)/C=C/C(=O)c1cc(N2CCOCC2)ccc1[N+](=O)[O-]`, the cell number change was -17.7%. For the same molecule, the AC50 under setting [1] is 32.6 µM [falling, single point].
In the case of `CCOC(=O)c1c(C)nc2c(c1-c1cc(OC)c(OC)c(OC)c1)C(=O)c1ccccc1-2`, the cell number change was determined as 41.9%. Further, the AC50 under setting [2] is 0.0146 µM [rising, full curve]. For the same molecule, the AC50 under setting [1] was 0.206 µM [rising, partial curve].
Regarding `CCOc1ccccc1NC(=S)NC(=O)CCc1ccccc1`, the cell number change is -14.9%.
Regarding `Cc1cccnc1CCNC(=O)CCc1nnc(-c2ccccc2)o1`, the cell number change was -15.8%. Moreover, the AC50 under setting [1] was 1.64 µM [falling, full curve, poor fit].
For the molecule `Cc1noc(C)c1S(=O)(=O)N1CCC(C(=O)N2CCC(N3CCCCC3)CC2)CC1`, the cell number change is 41.9%. In addition, under setting [2], the AC50 was 6.51 µM [rising, single point]. Besides, the AC50 under setting [1] was 25.9 µM [rising, single point].
For the molecule `Cc1nn(Cc2ccc(C(=O)N/N=C/c3ccncc3)o2)c(C)c1Cl`, the cell number change worked out at 22.8%. For the same molecule, the AC50 under setting [1] was 29.1 µM [rising, single point].
For `Cc1nc(N2CCOCC2)nc(OCCN2CCOCC2)c1[N+](=O)[O-]`, the cell number change was found to be 13.1%. In addition, the AC50 under setting [1] is 0.00461 µM [falling, full curve, poor fit].
Take `Brc1cccc(OCCCCN2CCCCC2)c1`: the cell number change was 21%. Under setting [2], the AC50 is 3.26 µM [rising, single point]. Moreover, the AC50 under setting [1] was 5.8 µM [rising, partial curve, poor fit].
Take `CC(O)c1nc2ccccc2n1CC(=O)Nc1ccc(F)cc1Cl` (configuration not stated): the cell number change was -14.6%.
On to `CC1(C)CC(=O)C=C(N2CCNCC2)C1`, for which the cell number change is -9.03%. Besides, the AC50 under setting [1] is 5.8 µM [falling, full curve].
For the molecule `O=C(Cc1nnc(NC(=O)c2ccccc2)s1)N/N=C\c1ccc(O)c(O)c1`, the cell number change was -13.5%.
